Experimental data: PubChem BioAssay AID504784 (Drosophila RNAi Screening Center, 2011)
The deposit covers about 17,000 reagents; below is an unselected part of those that have a named target and a result. 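Each column is one replicate's B-score; the combined score over replicates was not deposited, so single values may mislead.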 A plus sign joins genes that one reagent is predicted to hit. Further read-outs or replicates are left out here.

Purpose: 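Genome-wide knock-down for genes giving too much or too little stored lipid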 (primary screen)
Cell system: Drosophila Kc167 embryonic cells
Knock-down reagent: long dsRNA against Drosophila genes, about 250 ng dsRNA per well
Duration: 4 days
Treatment: cells fed 400 µM oleic acid bound to BSA
Measured: 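Cells imaged and segmented; ratio of lipid droplet area to nuclear area, log-transformed, then normalised as a B-score over the screen; higher means more stored lipid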
Direction: droplet/nuclear area B-score: higher = more stored lipid (overstorage)

Gene	DRSC id	droplet/nuclear area B-score, replicate 1	droplet/nuclear area B-score, replicate 2
lncRNA:CR30055	DRSC22439	-0.431	-1.8
CR42545	DRSC03709	3.03	-0.575
RabX6	DRSC08223	0.837	-2.22
CG14961	DRSC08420	1.52	1.78
CG8545	DRSC07210	0.0958	0.048
Mt2	DRSC03374	0.0398	2.18
CG15368	DRSC18040	0.408	-0.0612
CG15368	DRSC23291	0.304	0.197
tHMG1	DRSC16181	-1.17	-1.55
Ugt35E1	DRSC15193	-1.68	-0.112
CG44014	DRSC14995	-0.649	1.39
CG15172	DRSC02473	0.0622	0.181
Mnr	DRSC20549	-0.506	0.24
Mnr	DRSC20550	1.14	0.61
Mnr	DRSC22441	0.138	-0.0434
lectin-37Da	DRSC03278	2.33	1.17
lectin-37Da	DRSC22729	-4.42	0.135
fd102C	DRSC17203	1.05	0.14
CG15262	DRSC01975	0.236	2.15
kek6	DRSC15299	-0.758	1.07
Gr92a	DRSC21631	-0.00998	-0.217
CG13566	DRSC04203	0.496	-0.204
Osi14	DRSC12368	-1.88	-2.05
RhoU	DRSC17803	-0.0466	-1.79
RhoU	DRSC17804	0.0597	-0.777
RhoU	DRSC22159	-0.913	-0.887
RhoU	DRSC22396	-0.361	-0.695
HDAC6	DRSC20252	0.01	-0.746
dlp	DRSC10281	-2.3	0.633
dlp	DRSC10472	0.827	0.3
CG6066	DRSC15959	0.616	-1.07
CG6066	DRSC22228	3.55	-0.247
niki	DRSC14285	0.746	0.964
Sap130	DRSC09680	0.00168	-0.0654
L (retired record)	DRSC05966	-0.925	1.85
L (retired record)	DRSC05967	2.18	-1.11
ru	DRSC08258	0.305	0.0199
sgll	DRSC15442	0.67	1.59
eIF2beta	DRSC11341	8.61	10.6
CG14564	DRSC11725	-0.434	-1.83
CG14564	DRSC22388	-0.131	1.16
CG18765	DRSC15392	-0.019	-0.00263
Oseg1	DRSC10776	-0.0196	-0.663
CG17026	DRSC10237	-1.02	-0.651
lva	DRSC18403	-0.0131	
pre-mod(mdg4)-W + pre-mod(mdg4)-Y + mod(mdg4) + 3 more	DRSC16328	1.49	0.173
CG33309	DRSC01421	0.639	-0.709
bys	DRSC18748	1.08	0.0878
CG2493	DRSC02707	0.884	-0.259
blo	DRSC05937	-0.226	2.19
Syn	DRSC16876	-0.76	-0.824
CG17124	DRSC02580	-0.299	1.96
Mabi	DRSC02489	-0.154	0.0171
jbug	DRSC03952	-2.77	-1.51
jbug	DRSC04114	-1.78	-1.25
jbug	DRSC04167	-0.366	-1.1
jbug	DRSC04388	-0.0409	-0.0799
CG15333	DRSC18016	0.15	0.629
CG15333	DRSC18153	-0.126	0.36
CG2519	DRSC12312	-1.17	1.34
CG11779 + CG5835	DRSC15886	-1.75	-0.127
Cyp6a17	DRSC07378	-0.651	-0.466
CG8668	DRSC03101	-1.04	0.329
MED28	DRSC15721	0.697	-1.73
CG13474	DRSC10018	-1.16	0.708
hkb	DRSC12377	-4.71	-2.09
CG15439	DRSC00453	2.18	0.57
Atf6	DRSC04743	-1.31	0.303
Atf6	DRSC04889	-1.05	0.127
Boh1	DRSC14487	-1.01	0.344
CG9483	DRSC03226	0.882	0.75
Galk	DRSC10500	-0.24	-0.0687
CysRS	DRSC05948	0.621	0.0469
Spt6	DRSC18836	-3.01	-5.14
CG42729	DRSC10236	0.839	1.39
ND-18	DRSC19441	-0.188	-0.0208
CG17780	DRSC15265	-0.0676	1.06
CG42336	DRSC05273	0.108	-0.739
CG42336	DRSC06332	0.134	-1.6
CG42336	DRSC06333	-0.789	-1.26
CG2258	DRSC18222	-0.344	0.894
BicD	DRSC02006	0.796	0.66
Son	DRSC16400	0.605	-0.392
Mal-B1	DRSC02416	3.2	1.68
dUTPase	DRSC01998	0.993	1.42
Cdk4	DRSC07358	-1.03	1.98
Acp63F	DRSC08137	0.351	0.398
CalpC	DRSC19873	1.9	-4.19
Su(z)2	DRSC07558	-0.0242	-0.81
Su(z)2	DRSC22970	-2.31	-1.09
CG11889 + CG11891	DRSC14426	0.00882	0.226
CG11889 + CG11891	DRSC14427	-0.0287	-0.0922
Rab9D + Rab9Fa + Rab9E	DRSC19853	0.412	1.42
CG11679	DRSC19415	-1.58	-1.85
CG15358	DRSC00388	-0.963	0.225
SoxN	DRSC03440	-2	-2.03
SoxN	DRSC21779	0.78	-0.0123
CG7557	DRSC10878	0.0326	0.086
Fad2	DRSC11165	0.617	-0.828
UQCR-6.4	DRSC06454	0.0104	4.34
EMC2B	DRSC15506	2.39	-0.104
CG5412	DRSC15796	-0.337	0.126
p38a	DRSC16743	0.169	-1.19
CG32830 (retired record)	DRSC01162	0.041	0.119
CG32830 (retired record)	DRSC23151	0.893	-0.904
